The source of these data is PMC10063658.

The chains behind the UniProt entries cited, without tags or fusion partners. Where a name states a change or a piece, a line headed by the entry shows the natural chain unless it says otherwise.
UniProt P49312: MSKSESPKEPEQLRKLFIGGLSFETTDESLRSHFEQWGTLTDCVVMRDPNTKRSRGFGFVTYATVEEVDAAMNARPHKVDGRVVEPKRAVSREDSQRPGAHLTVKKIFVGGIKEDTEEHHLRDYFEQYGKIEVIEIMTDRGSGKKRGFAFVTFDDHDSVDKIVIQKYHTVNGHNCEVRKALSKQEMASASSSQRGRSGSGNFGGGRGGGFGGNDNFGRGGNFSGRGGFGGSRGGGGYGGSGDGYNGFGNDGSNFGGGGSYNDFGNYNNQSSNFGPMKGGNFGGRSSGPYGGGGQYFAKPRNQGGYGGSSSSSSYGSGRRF
UniProt O88569: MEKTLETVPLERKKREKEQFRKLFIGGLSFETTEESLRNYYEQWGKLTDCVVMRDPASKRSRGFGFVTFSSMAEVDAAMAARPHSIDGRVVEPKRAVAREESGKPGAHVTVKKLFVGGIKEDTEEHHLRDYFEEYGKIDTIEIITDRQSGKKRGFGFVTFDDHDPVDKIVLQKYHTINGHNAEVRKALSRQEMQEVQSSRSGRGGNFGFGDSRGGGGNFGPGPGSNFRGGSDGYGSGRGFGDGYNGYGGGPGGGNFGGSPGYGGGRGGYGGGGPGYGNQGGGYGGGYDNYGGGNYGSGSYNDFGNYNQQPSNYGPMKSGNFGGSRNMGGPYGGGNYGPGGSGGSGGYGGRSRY

For at least one entry, the source does not settle the construct or the ends of the probe. For some assays here: At least one result comes from cells or an extract, where the contact may be indirect. For some assays here: No signal at the amounts used counts as a negative. For some assays here: Where a protein sequence is shown, tags need not be part of it. For some assays here: A weaker result is weaker than the reference pair of the same experiment. For some assays here: At least one verdict was read from the data and is not stated in words by the source.

Data set [1] deals with T1, hnRNP F (B cell nuclear extract) (mouse) (UniProt Q9Z2X1).
T1 sequence (looked up, limits assumed): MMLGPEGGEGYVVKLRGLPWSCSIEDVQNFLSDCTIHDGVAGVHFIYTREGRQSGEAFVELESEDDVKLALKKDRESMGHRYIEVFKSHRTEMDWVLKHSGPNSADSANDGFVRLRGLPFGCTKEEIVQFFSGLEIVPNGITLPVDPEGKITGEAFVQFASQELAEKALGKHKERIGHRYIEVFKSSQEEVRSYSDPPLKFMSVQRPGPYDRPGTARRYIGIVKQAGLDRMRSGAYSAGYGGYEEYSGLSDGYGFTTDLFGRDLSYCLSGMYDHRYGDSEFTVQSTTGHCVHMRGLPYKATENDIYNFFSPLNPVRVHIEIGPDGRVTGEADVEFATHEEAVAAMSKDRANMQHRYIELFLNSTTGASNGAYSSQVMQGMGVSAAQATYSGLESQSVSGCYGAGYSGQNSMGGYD
Put plainly: pull-down. The settings on record: Pull-down: 20 mM Tris-HCl pH 7.5, 200 mM NaCl, 6 mM EDTA, 5 mM KF, 5 mM beta-glycerophosphate, 4 h at 4 C, 100 ug nuclear extract, protein in an extract.

Data set [2] deals with hnRNP A1 (mouse) (UniProt P49312). As to the kind of experiment: pull-down. As to conditions: Pull-down: 20 mM Tris-HCl pH 7.5, 200 mM NaCl, 6 mM EDTA, 5 mM KF, 5 mM beta-glycerophosphate, 4 h at 4 C, 100 ug nuclear extract, protein in an extract.
In data set [3] the target is hnRNP A2B1 (mouse) (UniProt O88569). Put plainly: pull-down. As to conditions: Pull-down: 20 mM Tris-HCl pH 7.5, 200 mM NaCl, 6 mM EDTA, 5 mM KF, 5 mM beta-glycerophosphate, 4 h at 4 C, 100 ug nuclear extract, protein in an extract.
Data set [4] deals with T2, hnRNP H1 (mouse) (UniProt O35737).
T2 sequence (looked up, limits assumed): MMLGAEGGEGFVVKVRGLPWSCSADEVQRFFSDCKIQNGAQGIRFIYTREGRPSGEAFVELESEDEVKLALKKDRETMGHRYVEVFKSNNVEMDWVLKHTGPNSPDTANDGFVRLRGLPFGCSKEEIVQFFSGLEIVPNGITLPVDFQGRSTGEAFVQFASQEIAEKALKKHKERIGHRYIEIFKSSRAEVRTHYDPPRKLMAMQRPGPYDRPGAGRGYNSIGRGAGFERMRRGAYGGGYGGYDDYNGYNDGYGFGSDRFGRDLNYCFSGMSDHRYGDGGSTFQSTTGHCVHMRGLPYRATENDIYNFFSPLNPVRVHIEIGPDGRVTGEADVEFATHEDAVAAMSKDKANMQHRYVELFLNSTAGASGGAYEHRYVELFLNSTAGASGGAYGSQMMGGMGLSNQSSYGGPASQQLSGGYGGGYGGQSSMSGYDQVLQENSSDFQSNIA
Put plainly: EMSA. As to conditions: EMSA: BersinBio RNA-EMSA kit, 12.5 nM biotin-RNA, 200 ng protein, recombinant protein, protein details: His. (In EMSA bound probe runs differently from free probe, usually more slowly.)

The mark [5] stands for this setting: label: 5' biotin (unlabeled as competitor).
Setting [6] is: not significantly reduced, label: 5' biotin (unlabeled as competitor).

UCAGAAGAGAAAAGAGAGAGAGGGU [I7-M1]: the binding result in data set [1] (label: 5' biotin) is given as “binds more weakly”.

As to “UCCAGCCCAGAAUGGCCUUGCCAAGUCUUUCCCAAGCACCCAACU [I6-CM]”, the binding result in data set [2] (label: 5' biotin) is listed as “no binding”; in data set [3] (label: 5' biotin), “no binding”; in data set [1] (blot described as hnRNP F/H, label: 5' biotin), “no binding”.

Consider “AGUUCCCUGCUUCCCAAAGACUUGGCAAGGCCAUUCUCCCCUGGA [I6-R (I6-reverse)]”, for which the binding result in data set [2] (label: 5' biotin), in data set [3] (label: 5' biotin) and in data set [1] (label: 5' biotin) was “no binding” each time.

On to UCAGGAGAGGAAAGGGAGGGAGGGU [I7-WT], for which the binding result in data set [4] (label: 5' biotin) and in data set [1] (label: 5' biotin) was “binds” in each case.

Consider “UCCAGGGGAGAAUGGCCUUGCCAAGUCUUUGGGAAGCAGGGAACU [I6-WT]”, for which the binding result in data set [4] (setting [5]), in data set [2] (setting [5]), in data set [3] (setting [5]) and in data set [1] (setting [5]) was “binds” throughout.

For the sequence “UCCAGAAAAGAAUGGCCUUGCCAAGUCUUUGAGAAGCAGAGAACU [I6-M1M2]”, the binding result in data set [2] (setting [6]) is given as “binds”; in data set [3] (setting [6]), “binds”; in data set [1] (setting [5]), “binds more weakly”.

Consider AGUCCUCUCCUUUCCCUCCCUCCCA [I7-reverse], for which, in data set [1] (label: 5' biotin), the binding result is recorded as “no binding”.
